Measured values taken from patent US20220041752A1 (Bayer, published 2022).
These are yes or no findings as the source states them, for the method shown. Some results given as binding are weak or reduced against the parent protein; the word gives no strength.

The chains behind the UniProt entries cited, without tags or fusion partners. Where a name states a change or a piece, a line headed by the entry shows the natural chain unless it says otherwise.
UniProt P10646: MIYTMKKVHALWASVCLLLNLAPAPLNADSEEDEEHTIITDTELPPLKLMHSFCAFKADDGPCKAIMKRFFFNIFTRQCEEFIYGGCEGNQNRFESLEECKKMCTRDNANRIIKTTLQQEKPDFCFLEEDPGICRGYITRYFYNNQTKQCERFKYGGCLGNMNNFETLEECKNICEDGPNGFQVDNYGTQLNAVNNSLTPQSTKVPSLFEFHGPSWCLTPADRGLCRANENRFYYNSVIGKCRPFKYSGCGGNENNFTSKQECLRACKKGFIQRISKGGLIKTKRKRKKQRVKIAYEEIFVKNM

Tests used:
[1] = target: TFPI Kunitz domain 1+2 (Asp1 to Phe154) (human) (UniProt P10646); test: X-ray co-crystal structure
[2] = target: TFPI Kunitz domain 1+2 (Asp1 to Phe154) (human) (UniProt P10646); test: analytical SEC and western blot
[3] = target: TFPI Kunitz domain 1+2 (Asp1 to Phe154) (human) (UniProt P10646); test: analytical size exclusion chromatography
[4] = target: TFPI Kunitz domain 1+2 (Asp1 to Phe154) (human) (UniProt P10646); test: analytical size exclusion chromatography (S75 5/150)
[5] = target: TFPI Kunitz domain 1+2 (Asp1 to Phe154) (human) (UniProt P10646); test: SEC and western blot of purified TFPI Kunitz domain 1+2
[6] = target: TFPI Kunitz domain 1+2 (Asp1 to Phe154) (human) (UniProt P10646); test: analytical size exclusion chromatography (S75 5/150, 100 mM Tris HCl pH 7.5), absorbance in mAU against elution volume in ml

Measured: binding

B1: Fab B (Fab, V domains shown)
VH: QVELVESGGGLVQPGGSLRLSCAASGFTFRSYGMSWVRQAPGKGLEWVSSIRGSSSSTYYADSVKGRFTISRDNSKNTLYLQMNSLRAEDTAVYYCARLYRYWFDYWGQGTLVTVSS
VL: DIELTQPPSVSVAPGQTARISCSGDNLRNYYAHWYQQKPGQAPVVVIYYDNNRPSGIPERFSGSNSGNTATLTISGTQAEDEADYYCQSWDDGVPVFGGGTKLTVLG
notes: also called monoclonal TFPI antibody Fab B
binds: all assays above
